# Measured values: patent US10245246B2, “β-substituted β-amino acids and analogs as chemotherapeutic agents” (QUADRIGA BIOSCIENCES, INC., priority 2014, dated 2019)
# The chains behind the UniProt entries cited, without tags or fusion partners. Where a name states a change or a piece, a line headed by the entry shows the natural chain unless it says otherwise.
# UniProt Q01650: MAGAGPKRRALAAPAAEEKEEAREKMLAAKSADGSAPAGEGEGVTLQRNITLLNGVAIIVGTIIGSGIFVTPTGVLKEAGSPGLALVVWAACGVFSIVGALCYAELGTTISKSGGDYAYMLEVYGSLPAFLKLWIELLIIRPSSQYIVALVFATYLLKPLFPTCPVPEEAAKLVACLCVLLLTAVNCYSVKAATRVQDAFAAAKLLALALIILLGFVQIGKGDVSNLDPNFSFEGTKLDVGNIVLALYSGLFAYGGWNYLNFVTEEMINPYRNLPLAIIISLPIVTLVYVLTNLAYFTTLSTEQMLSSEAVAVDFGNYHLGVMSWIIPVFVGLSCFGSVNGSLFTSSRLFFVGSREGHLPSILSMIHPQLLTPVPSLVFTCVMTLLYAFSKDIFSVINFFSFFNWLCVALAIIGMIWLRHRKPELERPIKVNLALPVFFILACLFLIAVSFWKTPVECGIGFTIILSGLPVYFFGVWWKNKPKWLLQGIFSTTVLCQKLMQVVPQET
# Some results were stated once for a whole list of compounds, not compound by compound.
# Molecular target: T1, hLAT1 (Homo sapiens, UniProt Q01650)
# T1 construct: expressed in transfected cells; host or cells: LLCPK cells (pig kidney line), tetracycline/doxycycline-inducible, boosted with butyrate
# Experiment: LAT1 uptake inhibition assay: radiolabeled competition uptake of [3H]-gabapentin
# Format: cell-based
# Settings: 1 mM test compound, 15 min, LAT1-expressing cells; uptake in the absence of any compound was 100%
structure (smiles),measurement,value
N[C@@H](Cc1ccccc1)C(=O)O [phenylalanine],specific [3H]-GP uptake (percent of specific GP uptake),less than 10%
